## Percent effect of library compounds

By UniProt entry, the sequences of proteins in these tests, tags left out. Residues count along the entry.
UniProt Q8IDJ8, 1-583: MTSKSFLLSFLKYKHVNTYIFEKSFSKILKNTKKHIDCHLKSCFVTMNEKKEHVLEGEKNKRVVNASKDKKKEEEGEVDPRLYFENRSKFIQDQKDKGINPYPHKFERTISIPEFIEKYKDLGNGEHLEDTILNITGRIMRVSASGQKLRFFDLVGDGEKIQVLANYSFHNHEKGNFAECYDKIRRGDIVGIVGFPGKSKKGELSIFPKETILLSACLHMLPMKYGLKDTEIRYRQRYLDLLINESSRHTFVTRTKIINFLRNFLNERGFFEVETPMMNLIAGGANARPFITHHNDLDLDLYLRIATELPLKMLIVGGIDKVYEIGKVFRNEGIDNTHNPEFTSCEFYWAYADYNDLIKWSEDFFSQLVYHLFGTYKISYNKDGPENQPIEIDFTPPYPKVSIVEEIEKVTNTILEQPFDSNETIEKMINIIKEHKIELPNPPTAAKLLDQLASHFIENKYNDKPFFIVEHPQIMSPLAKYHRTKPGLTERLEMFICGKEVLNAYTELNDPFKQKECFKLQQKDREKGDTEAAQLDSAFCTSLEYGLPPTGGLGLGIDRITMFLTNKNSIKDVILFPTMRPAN
UniProt P9WFT3, whole entry: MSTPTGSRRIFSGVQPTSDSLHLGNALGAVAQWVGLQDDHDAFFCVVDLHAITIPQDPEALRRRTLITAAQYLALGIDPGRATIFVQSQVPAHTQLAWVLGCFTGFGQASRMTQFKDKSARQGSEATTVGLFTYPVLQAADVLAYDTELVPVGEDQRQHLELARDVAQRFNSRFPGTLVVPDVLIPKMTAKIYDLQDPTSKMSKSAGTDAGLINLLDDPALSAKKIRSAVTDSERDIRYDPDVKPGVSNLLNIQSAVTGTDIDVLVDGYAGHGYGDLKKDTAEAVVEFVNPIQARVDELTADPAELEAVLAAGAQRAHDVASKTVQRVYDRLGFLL
UniProt P9WPC5, whole entry: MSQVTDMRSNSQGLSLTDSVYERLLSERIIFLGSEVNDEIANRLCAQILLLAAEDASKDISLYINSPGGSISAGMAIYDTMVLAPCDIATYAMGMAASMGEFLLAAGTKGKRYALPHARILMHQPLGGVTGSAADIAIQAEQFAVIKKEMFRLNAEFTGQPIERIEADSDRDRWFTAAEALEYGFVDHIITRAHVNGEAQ
UniProt P9WPC3, whole entry partner: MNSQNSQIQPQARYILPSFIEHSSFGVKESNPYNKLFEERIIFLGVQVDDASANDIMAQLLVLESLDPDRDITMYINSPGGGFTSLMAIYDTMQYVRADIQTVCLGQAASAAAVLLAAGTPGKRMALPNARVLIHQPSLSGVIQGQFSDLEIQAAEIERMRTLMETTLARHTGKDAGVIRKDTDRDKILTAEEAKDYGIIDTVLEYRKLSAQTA
UniProt Q4DA54, 1-478: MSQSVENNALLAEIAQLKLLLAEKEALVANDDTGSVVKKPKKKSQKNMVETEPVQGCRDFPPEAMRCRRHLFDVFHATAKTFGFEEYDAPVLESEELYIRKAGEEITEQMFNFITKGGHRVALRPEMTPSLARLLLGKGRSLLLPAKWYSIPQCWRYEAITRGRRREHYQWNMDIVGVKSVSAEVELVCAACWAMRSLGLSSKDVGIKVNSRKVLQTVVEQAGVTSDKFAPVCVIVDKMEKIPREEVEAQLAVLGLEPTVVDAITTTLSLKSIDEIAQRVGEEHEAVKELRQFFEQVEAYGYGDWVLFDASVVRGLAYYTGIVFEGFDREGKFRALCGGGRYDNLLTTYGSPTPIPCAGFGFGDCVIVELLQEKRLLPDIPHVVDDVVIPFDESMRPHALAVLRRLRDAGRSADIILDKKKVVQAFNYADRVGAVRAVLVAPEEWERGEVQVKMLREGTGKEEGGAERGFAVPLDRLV

PfKRS1: 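Lysine-tRNA ligase, Plasmodium falciparum 3D7 (UniProt Q8IDJ8). Enzyme assay of the cytosolic lysyl-tRNA synthetase in 384-well plates, read by luminescence. Tested at 30 µM. Direction is inferred from only a few compounds that gave an IC50; most scored high, so higher reads as stronger inhibition. About 69,000 compounds were tested under these conditions; 0.071% (about 49) showed 50% or more at least once.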
MtTrpRS: 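Tryptophan-tRNA ligase, Mycobacterium tuberculosis (UniProt P9WFT3). Enzyme assay of tryptophanyl-tRNA synthetase; the read-out is not stated. Tested at 10 µM. Higher most likely means stronger inhibition; the record gives no direction and few retests gave an IC50. Size under these conditions: about 65,000 compounds, about 64 of them at 50% or above in at least one test.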
ClpP1P2: 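ClpP1P2, Mycobacterium tuberculosis (UniProt P9WPC5 and UniProt P9WPC3). Protease assay of ClpP1P2, read by the AMC dye that it sets free. Compounds at 50 µM. Direction is inferred from only a few compounds that gave an IC50; most scored high, so higher reads as stronger inhibition. Most other retested compounds had strongly negative values. About 69,000 compounds were tested under these conditions; 0.015% (about 10) showed 50% or more at least once.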
TcHisRS: 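Histidine-tRNA ligase, Trypanosoma cruzi CL Brener (UniProt Q4DA54). Enzyme assay of histidyl-tRNA synthetase; the read-out is not stated. Concentration: 30 µM. Higher reads as stronger inhibition (inferred: compounds with an IC50 in retests scored well above the rest). About 69,000 compounds were tested under these conditions; 0.045% (about 31) showed 50% or more at least once.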

The filed quantity is “Percent Effect” (%).
How 0% and 100% were set is not recorded. Most values in the screen are low, and negative values occur.
Compounds were drawn at random from those tested, without regard to their results.
A dash means the value is not listed here; it may have been measured.

compound,PfKRS1,MtTrpRS,ClpP1P2,TcHisRS
Cc1cc(C(=O)N2CCC(n3nc(C)cc3C)C2)c2ccc(F)cc2n1 (centres unmarked),2.729,7.295,-13.5,5.83
O=C(Cn1cccnc1=O)NCc1cccnc1OCC(F)(F)F,4.919,-0.3631,4.489,9.091
N#Cc1cccc(Cl)c1NCCc1n[nH]c(=O)[nH]1,1.044,2.27,-6.381,3.947
CCn1cnnc1C1CCN(C(=O)c2cc(C)n(CC)c2C)CC1,-0.3301,6.426,-3.03,7.471
CC(C)CNC(=O)CCN1C(=O)CCc2cc(F)ccc21,1.88,2.687,-3.735,8.163
CC(=O)c1cccc(NC(=O)Cn2nc(-c3cccs3)oc2=O)c1,-1.709,9.464,-21.79,-1.734
O=C(c1cccc2c1OCO2)N1CCCC(n2ccnc2)C1 (centres unmarked),0.4133,-4.969,-1.565,2.006
CCS(=O)(=O)c1ccc2oc([C@H]3CCN(CC4CCCCC4)C3)nc2c1,1.858,1.754,4.461,2.488
O=C(c1ccccc1)N1CC[C@H]2C[C@H](c3nnc(C4CC4)o3)O[C@@H]2C1,0.7069,-,-2.096,0
CC(C)N1CCC(CC(=O)NC(C(=O)O)c2cc(F)ccc2F)CC1 (centres unmarked),5.632,7.776,7.935,1.02
O=C(c1ccco1)N1CCN2C[C@H](Oc3cncnc3)C[C@H]2C1,1.642,8.271,-41.41,6.468
O=C(CC1CC1)N1C[C@H]2CN(CC3CC3)C(=O)[C@H]2C1,1.606,-6.063,-16.59,2.913
COCC1CN(CC2CC2)Cc2nn(C)cc21 (centres unmarked),-4.821,6.807,1.905,-0.5464
CN1CCCC1CNC(=O)CCCOc1cccc(Br)c1 (centres unmarked),0.6632,13.25,-11.38,3.55
Cc1cnn(C2CCCN(C(=O)c3sccc3C#N)C2)c1 (centres unmarked),-0.3985,-3.044,8.623,2.29
Cn1nccc1C(=O)N1CCOC(Cc2ccc(Cl)cc2)C1 (centres unmarked),3.802,1.217,-0.3869,1.493
COCC(=O)NC(c1ccccc1)c1ccc2c(c1)CCCO2 (centres unmarked),2.842,-2.001,-1.293,9.375
Cc1ccc(-c2cc(CNC(=O)N3CCCN(C)CC3)on2)cc1,-0.1714,-5.136,-10.15,7.602
Cc1ccc(CN2CC[C@@H](N3CCOCC3)[C@@H]2Cc2cccnc2)o1,8.333,-3.996,-20.81,4.478
COCCN1CCN(c2nc(C3CCCC3)nc3c2cnn3C)CC1,6.44,-8.273,3.838,0.9901
O=C(NCc1cccnc1)NCC(O)c1cccc(C(F)(F)F)c1 (centres unmarked),-0.8437,0.5093,4.476,6.494
CN(Cc1ccccc1F)C(C(N)=O)c1ccccc1 (centres unmarked),0,6.812,8.828,-1.84
O=C(CCN1C[C@@H]2CC[C@H]1C2)N1CCN(c2cccc(Cl)c2)C(=O)C1,0.5356,-3.759,-11.9,6.468
O[C@@]1(CNCCCOc2cccnc2)CCCN2CCCC[C@@H]21,1.12,-4.486,-11.05,0.9662
O=C(CN(Cc1cccs1)C1CCS(=O)(=O)C1)NCC1CCCCC1 (centres unmarked),4.973,2.725,5.409,9.554
Cc1nc(C2CCCN2CC(=O)N2CCCc3ccccc32)no1 (centres unmarked),5.688,0.1572,0.6699,1.141
CN(C(=O)CN1CCCC1Cc1ccccc1)c1ccccc1 (centres unmarked),2.877,-1.144,-12.24,8.621
CC(C)c1cnc(CN(C)C2CCN(CCS(C)(=O)=O)C2)o1 (centres unmarked),4.245,1.72,1.082,3.509
COc1ccc(C(=O)NCC(c2cccn2C)N2CCN(C)CC2)cc1 (centres unmarked),-0.08172,-0.3393,4.759,11
COc1ccc(C(=O)NCc2ccco2)nn1,3.397,1.698,-0.1426,2.646
c1csc(-c2cc(CN3CCN(c4cnccn4)CC3)no2)c1,4.277,0.6255,-0.03162,2.041
c1ccc(-c2cnc(CN3CCCC3Cn3cccn3)o2)cc1 (centres unmarked),3.107,2.336,-35.9,4.035
CC(C)c1cc(C(=O)N2CCCN(Cc3ccccc3)CC2)n[nH]1,3.215,0.4397,-0.2859,0
COCCN(Cc1coc(-c2ccc(OC)cc2)n1)C1CC1,1.652,-4.115,-1.286,5.155
Cc1cc2[nH]c(=O)oc2cc1S(=O)(=O)N1CCC(N2CCCC2=O)CC1,3.63,-1.952,9.984,8.155
CC(=O)N1CCN(C(=O)c2ccc(-c3cccc(C)c3)[nH]c2=O)CC1,4.476,-1.052,-32.7,10.88
Cc1ccccc1-c1csc2c(=O)[nH]c(N3CCCC(C(=O)O)C3)nc12 (centres unmarked),14.43,16.03,7.436,5.155
CC(NC(=O)c1cccs1)C(=O)NCc1ccccc1CN1CCCC1 (centres unmarked),2.817,1.199,7.596,2.29
CNc1cc(N2CCCC2CNCc2cccnc2)ncn1 (centres unmarked),6.295,0.06456,-22.31,1.345
Cc1c[nH]c(C(=O)N2CCCC2c2ccc(C(=O)N3CCSCC3)s2)n1 (centres unmarked),6.485,2.75,3.315,-1.554
Cn1cc(Br)cc(NC(=O)Cc2cccs2)c1=O,-0.2673,-4.124,-4.242,7.514
O=C1CCC(=O)N1c1nn(Cc2ccc(F)cc2)cc1Cl,1.512,-,8.444,6.936
O=C(c1ccc2occc2c1)N1CCC(C(=O)O)(n2cccn2)CC1,-1.937,0.854,-7.285,7.216
Cc1noc(CN(CCc2ccco2)Cc2cccc(C#N)c2)n1,1.651,-1.077,-17.45,9.649
O=C(O)c1cccc(CN2CCCC(Cc3ccn[nH]3)C2)c1 (centres unmarked),-1.495,-3.906,-2.578,6.513
Cc1ccc(-c2noc(CN3CCC(c4ccn[nH]4)CC3)n2)cc1,3.838,-2.741,3.783,-1.031
CC(=O)N1[C@H](CN(C)C)C[C@@H]2CN(C(=O)c3cccc(F)c3)CC[C@@H]21,6.48,4.656,7.438,3.008
CNC(=O)CN1CCOCC12CCN(C(=O)c1ccccc1)CC2,9.3,-2.674,12.72,5.882
CN(C)c1cc2c(nn1)CCN(C(=O)Cc1ccc3c(c1)CCO3)C2,6.837,3.423,0.1438,8.621
CC(C)COC(C)C(=O)N1CCC(C)CC1 (centres unmarked),-3.862,1.63,-6.129,3.093
Cc1cc(N[C@H](CO)c2ccccc2)n2nc(C)cc2n1,6.386,0.1447,-12.03,-4.831
Cc1nn(-c2ncccn2)c2c1C(c1cnn(C)c1)SCC(=O)N2 (centres unmarked),1.455,1.471,-8.255,4.094
O=C(NCc1ccc(-n2cncn2)nc1)N(CC1CCOC1)C1CC1 (centres unmarked),2.412,-2.23,5.244,8.108

Some entries from above, unchanged:

| compound | PfKRS1 | MtTrpRS | ClpP1P2 | TcHisRS |
|---|---|---|---|---|
| `Cc1ccc(CN2CC[C@@H](N3CCOCC3)[C@@H]2Cc2cccnc2)o1` | 8.333 | -3.996 | -20.81 | 4.478 |
| `O=C(CC1CC1)N1C[C@H]2CN(CC3CC3)C(=O)[C@H]2C1` | 1.606 | -6.063 | -16.59 | 2.913 |
| `Cc1cc(N[C@H](CO)c2ccccc2)n2nc(C)cc2n1` | 6.386 | 0.1447 | -12.03 | -4.831 |
| `COCC(=O)NC(c1ccccc1)c1ccc2c(c1)CCCO2` (centres unmarked) | 2.842 | -2.001 | -1.293 | 9.375 |
| `CC(C)CNC(=O)CCN1C(=O)CCc2cc(F)ccc21` | 1.88 | 2.687 | -3.735 | 8.163 |
| `O=C(Cn1cccnc1=O)NCc1cccnc1OCC(F)(F)F` | 4.919 | -0.3631 | 4.489 | 9.091 |

Data taken from ChEMBL document CHEMBL3988442, “University of Dundee, Small-Polar-MMV Screening Library” (2021).